From paper doi:10.1101/2020.07.07.191437
These are yes or no findings as the source states them, for the method shown. In cells and extracts the contact can be indirect. Some results given as binding are weak or reduced against the parent protein; the word gives no strength. Sequences can lack the tags named with a protein.

What was measured:
Assay in all cases: co-IP
[1] = target: T1, FLAG-tagged SMG7 wild type (human) (UniProt Q92540)
T1 sequence: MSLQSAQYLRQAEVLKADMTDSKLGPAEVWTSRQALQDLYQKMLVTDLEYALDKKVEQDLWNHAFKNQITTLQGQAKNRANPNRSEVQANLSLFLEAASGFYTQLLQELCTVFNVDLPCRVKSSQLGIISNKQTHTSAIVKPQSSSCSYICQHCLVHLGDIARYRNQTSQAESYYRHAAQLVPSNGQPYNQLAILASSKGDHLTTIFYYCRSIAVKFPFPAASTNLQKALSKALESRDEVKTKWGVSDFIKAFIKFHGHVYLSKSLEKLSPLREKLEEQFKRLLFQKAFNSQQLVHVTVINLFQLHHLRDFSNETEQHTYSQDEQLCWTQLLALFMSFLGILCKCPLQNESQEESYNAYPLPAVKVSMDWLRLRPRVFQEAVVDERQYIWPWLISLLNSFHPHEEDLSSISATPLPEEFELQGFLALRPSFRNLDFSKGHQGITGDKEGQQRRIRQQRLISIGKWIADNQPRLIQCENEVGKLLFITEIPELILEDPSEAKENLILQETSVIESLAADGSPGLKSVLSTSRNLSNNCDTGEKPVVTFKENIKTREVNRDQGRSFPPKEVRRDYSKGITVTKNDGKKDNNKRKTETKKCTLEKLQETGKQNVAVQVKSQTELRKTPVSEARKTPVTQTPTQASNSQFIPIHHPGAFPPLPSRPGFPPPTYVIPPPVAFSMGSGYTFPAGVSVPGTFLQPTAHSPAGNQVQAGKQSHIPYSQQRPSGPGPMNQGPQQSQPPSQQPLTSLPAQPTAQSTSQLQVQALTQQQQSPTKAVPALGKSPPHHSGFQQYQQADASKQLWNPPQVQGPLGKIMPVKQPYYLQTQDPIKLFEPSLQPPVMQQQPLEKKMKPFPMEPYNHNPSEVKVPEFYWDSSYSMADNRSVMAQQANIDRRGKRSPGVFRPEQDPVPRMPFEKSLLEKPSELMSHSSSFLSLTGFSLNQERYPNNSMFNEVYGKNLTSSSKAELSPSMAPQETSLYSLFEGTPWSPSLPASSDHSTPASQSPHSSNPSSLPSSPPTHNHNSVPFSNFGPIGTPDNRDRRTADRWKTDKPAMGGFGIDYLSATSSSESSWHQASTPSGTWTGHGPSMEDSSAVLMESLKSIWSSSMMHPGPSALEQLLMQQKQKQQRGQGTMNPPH

[2] = target: T2, FLAG-tagged SMG7 1-633 G100E (human) (UniProt Q92540)
T2 sequence: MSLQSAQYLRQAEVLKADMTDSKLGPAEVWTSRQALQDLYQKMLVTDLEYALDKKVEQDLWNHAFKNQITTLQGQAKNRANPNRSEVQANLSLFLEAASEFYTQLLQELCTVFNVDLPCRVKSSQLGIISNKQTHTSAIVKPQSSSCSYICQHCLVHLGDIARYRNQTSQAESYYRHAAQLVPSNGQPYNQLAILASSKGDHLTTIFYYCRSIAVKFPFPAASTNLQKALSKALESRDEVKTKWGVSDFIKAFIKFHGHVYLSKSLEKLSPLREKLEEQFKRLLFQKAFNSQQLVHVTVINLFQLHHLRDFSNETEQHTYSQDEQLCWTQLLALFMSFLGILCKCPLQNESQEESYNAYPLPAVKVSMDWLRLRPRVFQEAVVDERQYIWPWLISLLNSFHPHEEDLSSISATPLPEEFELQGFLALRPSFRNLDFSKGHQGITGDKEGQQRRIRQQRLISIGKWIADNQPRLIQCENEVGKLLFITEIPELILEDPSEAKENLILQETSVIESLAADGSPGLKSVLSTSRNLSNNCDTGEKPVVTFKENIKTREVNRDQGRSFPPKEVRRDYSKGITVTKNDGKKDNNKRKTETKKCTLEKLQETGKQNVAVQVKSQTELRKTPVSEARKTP

[3] = target: T3, FLAG-tagged SMG7 G100E (full length) (human) (UniProt Q92540)
T3 sequence: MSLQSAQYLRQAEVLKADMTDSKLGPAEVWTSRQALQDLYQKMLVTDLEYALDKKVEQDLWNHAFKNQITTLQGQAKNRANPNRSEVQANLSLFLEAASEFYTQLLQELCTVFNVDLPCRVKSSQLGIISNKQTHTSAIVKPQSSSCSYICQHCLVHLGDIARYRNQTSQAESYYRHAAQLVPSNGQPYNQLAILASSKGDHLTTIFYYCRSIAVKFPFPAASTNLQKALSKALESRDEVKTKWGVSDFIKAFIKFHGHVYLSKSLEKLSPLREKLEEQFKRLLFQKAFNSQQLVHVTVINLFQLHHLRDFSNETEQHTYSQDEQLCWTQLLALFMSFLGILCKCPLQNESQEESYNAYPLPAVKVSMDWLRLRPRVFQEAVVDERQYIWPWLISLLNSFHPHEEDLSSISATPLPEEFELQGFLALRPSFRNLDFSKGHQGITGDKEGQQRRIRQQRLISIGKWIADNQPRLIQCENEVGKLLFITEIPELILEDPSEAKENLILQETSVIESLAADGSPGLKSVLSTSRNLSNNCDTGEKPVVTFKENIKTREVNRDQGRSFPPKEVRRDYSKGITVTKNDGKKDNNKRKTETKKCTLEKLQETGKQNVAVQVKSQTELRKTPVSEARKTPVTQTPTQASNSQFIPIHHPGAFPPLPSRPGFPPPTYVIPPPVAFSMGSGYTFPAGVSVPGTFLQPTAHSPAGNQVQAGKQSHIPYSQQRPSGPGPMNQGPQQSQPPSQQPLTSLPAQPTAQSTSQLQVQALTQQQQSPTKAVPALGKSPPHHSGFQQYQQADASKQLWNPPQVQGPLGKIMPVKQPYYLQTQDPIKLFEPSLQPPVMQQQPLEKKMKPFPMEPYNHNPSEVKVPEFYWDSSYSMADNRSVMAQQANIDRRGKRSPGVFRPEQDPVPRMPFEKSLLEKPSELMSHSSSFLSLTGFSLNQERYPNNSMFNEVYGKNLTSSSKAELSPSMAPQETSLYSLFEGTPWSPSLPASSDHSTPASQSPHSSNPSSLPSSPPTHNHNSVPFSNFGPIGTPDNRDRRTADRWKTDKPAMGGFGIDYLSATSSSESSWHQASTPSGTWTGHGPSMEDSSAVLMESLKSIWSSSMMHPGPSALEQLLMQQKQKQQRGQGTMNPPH

[4] = target: T4, FLAG-tagged SMG7 1-633 (human) (UniProt Q92540)
T4 sequence: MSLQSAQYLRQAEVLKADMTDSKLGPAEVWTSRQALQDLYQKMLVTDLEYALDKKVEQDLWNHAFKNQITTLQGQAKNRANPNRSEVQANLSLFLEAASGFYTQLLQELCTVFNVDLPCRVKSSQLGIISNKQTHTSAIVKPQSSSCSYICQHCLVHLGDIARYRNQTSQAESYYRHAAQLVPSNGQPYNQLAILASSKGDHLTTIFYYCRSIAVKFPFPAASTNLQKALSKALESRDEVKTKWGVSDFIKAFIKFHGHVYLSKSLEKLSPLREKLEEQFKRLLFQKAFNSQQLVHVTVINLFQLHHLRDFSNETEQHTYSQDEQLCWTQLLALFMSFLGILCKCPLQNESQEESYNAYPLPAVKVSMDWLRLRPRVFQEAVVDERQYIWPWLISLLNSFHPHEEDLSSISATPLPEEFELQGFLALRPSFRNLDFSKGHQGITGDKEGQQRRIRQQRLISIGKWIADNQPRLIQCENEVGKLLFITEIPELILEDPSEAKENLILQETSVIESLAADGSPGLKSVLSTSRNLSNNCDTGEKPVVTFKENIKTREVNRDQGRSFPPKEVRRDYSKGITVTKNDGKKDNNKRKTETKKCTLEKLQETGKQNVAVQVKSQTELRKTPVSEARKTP

binding [1]: binds
binding [2]: binds
binding [3]: binds
binding [4]: binds
B1: UPF1 (protein, UniProt Q92900 1-1129)
chain: MSVEAYGPSSQTLTFLDTEEAELLGADTQGSEFEFTDFTLPSQTQTPPGGPGGPGGGGAGGPGGAGAGAAAGQLDAQVGPEGILQNGAVDDSVAKTSQLLAELNFEEDEEDTYYTKDLPIHACSYCGIHDPACVVYCNTSKKWFCNGRGNTSGSHIVNHLVRAKCKEVTLHKDGPLGETVLECYNCGCRNVFLLGFIPAKADSVVVLLCRQPCASQSSLKDINWDSSQWQPLIQDRCFLSWLVKIPSEQEQLRARQITAQQINKLEELWKENPSATLEDLEKPGVDEEPQHVLLRYEDAYQYQNIFGPLVKLEADYDKKLKESQTQDNITVRWDLGLNKKRIAYFTLPKTDSGNEDLVIIWLRDMRLMQGDEICLRYKGDLAPLWKGIGHVIKVPDNYGDEIAIELRSSVGAPVEVTHNFQVDFVWKSTSFDRMQSALKTFAVDETSVSGYIYHKLLGHEVEDVIIKCQLPKRFTAQGLPDLNHSQVYAVKTVLQRPLSLIQGPPGTGKTVTSATIVYHLARQGNGPVLVCAPSNIAVDQLTEKIHQTGLKVVRLCAKSREAIDSPVSFLALHNQIRNMDSMPELQKLQQLKDETGELSSADEKRYRALKRTAERELLMNADVICCTCVGAGDPRLAKMQFRSILIDESTQATEPECMVPVVLGAKQLILVGDHCQLGPVVMCKKAAKAGLSQSLFERLVVLGIRPIRLQVQYRMHPALSAFPSNIFYEGSLQNGVTAADRVKKGFDFQWPQPDKPMFFYVTQGQEEIASSGTSYLNRTEAANVEKITTKLLKAGAKPDQIGIITPYEGQRSYLVQYMQFSGSLHTKLYQEVEIASVDAFQGREKDFIILSCVRANEHQGIGFLNDPRRLNVALTRARYGVIIVGNPKALSKQPLWNHLLNYYKEQKVLVEGPLNNLRESLMQFSKPRKLVNTINPGARFMTTAMYDAREAIIPGSVYDRSSQGRPSSMYFQTHDQIGMISAGPSHVAAMNIPIPFNLVMPPMPPPGYFGQANGPAAGRGTPKGKTGRGGRQKNRFGLPGPSQTNLPNSQASQDVASQPFSQGALTQGYISMSQPSQMSQPGLSQPELSQDSYLGDEFKSQIDVALSQDSTYQGERAYQHGGVTGLSQY
